PubChem BioAssay AID1259254 – NCATS – 2017
Shown is a random part of about 59,000 reagents tested. Of all reagents, about 1,550 (2.6%) are marked active. 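G2 share is only a proxy for re-replication; each gene was hit by three separate siRNAs, and active genes were retested.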 Reagents against one gene are numbered here. Not all columns of the deposit are shown. Not stated in the record: the amount of reagent.

- Screen: 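Finding genes that stop cells copying their DNA twice in one cycle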 (primary screen)
- System: human HCT116 colorectal cancer cells
- Reagent: single siRNA against human genes
- Time to read-out: 3 days
- Measurement: 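Imaged Hoechst DNA stain sorts each cell into a cycle phase by DNA amount; per plate, G2 fraction set to 0% for non-targeting and 100% for GMNN siRNA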
- Direction: G2 robust z-score: higher = more G2 cells, more excess DNA replication
- Active means: 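Active siRNAs have a G2 robust z of 5 or more median absolute deviations over the median, which in these data means about 38% or higher of GMNN control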

The opening 3 records, ahead of the listing:
| gene symbol | reagent no. | G2 robust z-score | Call |
| --- | --- | --- | --- |
| NCAN | 1 | 1.71 | inactive |
| NCAN | 2 | -1.13 | inactive |
| NCAN | 3 | 0.334 | inactive |

Results, repeating the preview:
| gene symbol | reagent no. | G2 robust z-score | Call |
| --- | --- | --- | --- |
| NCAN | 1 | 1.71 | inactive |
| NCAN | 2 | -1.13 | inactive |
| NCAN | 3 | 0.334 | inactive |
| SLC35G1 | 1 | 0.604 | inactive |
| SLC35G1 | 2 | -0.326 | inactive |
| SLC35G1 | 3 | -0.0813 | inactive |
| HDAC2 | 1 | -0.123 | inactive |
| HDAC2 | 2 | 5.25 | active |
| HDAC2 | 3 | -0.553 | inactive |
| SWI5 | 1 | -0.551 | inactive |
| SWI5 | 2 | -0.145 | inactive |
| SWI5 | 3 | 0.014 | inactive |
| CRACR2A | 1 | 2.27 | inactive |
| CRACR2A | 2 | -0.646 | inactive |
| CRACR2A | 3 | 0.27 | inactive |
| DUSP6 | 1 | 0.601 | inactive |
| DUSP6 | 2 | -1.16 | inactive |
| DUSP6 | 3 | 0.408 | inactive |
| IFI27L1 | 1 | 0.0123 | inactive |
| IFI27L1 | 2 | 5.5 | active |
| IFI27L1 | 3 | -0.97 | inactive |
| RIOX1 | 1 | -1.1 | inactive |
| RIOX1 | 2 | 0.186 | inactive |
| RIOX1 | 3 | 0.544 | inactive |
| C14orf39 | 1 | 1.09 | inactive |
| C14orf39 | 2 | -0.191 | inactive |
| C14orf39 | 3 | 0.135 | inactive |
| ATP2B1 | 1 | -1.41 | inactive |
| ATP2B1 | 2 | -1 | inactive |
| ATP2B1 | 3 | -0.858 | inactive |
